Where “and” joins values, the source holds several entries; their conditions need not be identical. Equal entries are not always repeated. Structures can show the parent of a compound that is named as a salt. ± gives the standard deviation of the averaged measurements. Some of the results follow. Single values of this set are uncertain.

For the experiment, the system named is Salmonella enterica serovar Typhimurium ST313 D23580. Description: normalized bacterial growth (OD600 20 h minus 0 h, interquartile-mean normalized) (fraction of plate interquartile mean); higher = more bacterial growth (less inhibition). As to conditions: LPM (pH 5.8, low phosphate, low Mg2+), concentration: 10 µM, temperature: 37 °C.
`CC(=O)OC/C=C(\C)CC/C=C(\C)CC/C=C(\C)CC/C=C(\C)CC/C=C(\C)CC/C=C(\C)CC/C=C(\C)CC/C=C(\C)CCC=C(C)C` had a normalized bacterial growth of 1.26. `CN(C)C(=N)NC(=N)N` came in with a normalized bacterial growth of 1.13. The compound `CC1CC2C3CCC4=CC(=O)C=CC4(C)C3(F)C(O)CC2(C)C1C(=O)CO` (stereo not drawn) gave a normalized bacterial growth of 0.845.

Compound `CC=CC(=O)N(CC)c1ccccc1C` showed a normalized bacterial growth of 1.02.

`CNCCc1ccccn1` gave a normalized bacterial growth of 1.09. Next, `CNCCc1ccccn1` [Betahistine mesylate]: 0.965; `CCCCCCCCCCCCCCCC(=O)OC[C@H](O)[C@H]1OC(=O)C(O)=C1O`: 0.709; `Nc1nc2c(ncn2COC(CO)CO)c(=O)[nH]1` [Ganciclovir]: 1.12. For `N=C(N)NCCCCNC(=N)N` [Arcaine sulfate], the normalized bacterial growth came to 0.966. In the case of `CO[C@H]1/C=C/O[C@@]2(C)Oc3c(C)c(O)c4c(O)c(c5c(nc6cc(C)ccn65)c4c3C2=O)NC(=O)/C(C)=C\C=C\[C@H](C)[C@H](O)[C@@H](C)[C@@H](O)[C@@H](C)[C@H](OC(C)=O)[C@@H]1C`, the normalized bacterial growth was determined as 1.09. Under `Clc1cccc(Cl)c1NC1=NCCN1` [Clonidine hydrochloride] stands 1.12 ± 0.028; under `CN(C)S(=O)(=O)c1ccc2c(c1)/C(=C/c1cc3c([nH]1)CCCC3)C(=O)N2`, 0.586; under `CC1(C)CC2C1CC[C@]1(C)CCC3C(C(=O)O)CC(=O)O[C@@]32C1` (stereo partly drawn) [3-HYDROXY-4-(SUCCIN-2-YL)-CARYOLANE delta-LACTONE], 1.03.

`CCN(CC)C(C)CN1c2ccccc2Sc2ccccc21` (stereo not drawn): the normalized bacterial growth turned out to be 0.588. In the case of `CCCNC(=O)NS(=O)(=O)c1ccc(Cl)cc1` [Chlorpropamide], the normalized bacterial growth was determined as 0.962.

Compound `CC(=O)O[C@]1(C(C)=O)CC[C@H]2[C@@H]3C=C(Cl)C4=CC(=O)CC[C@]4(C)[C@H]3CC[C@@]21C` gave a normalized bacterial growth of 1.4. Under `CSC(=N)N` [S-Methylisothiourea hemisulfate] stands 1.2; under `CN(C)CCOC(c1ccccc1)c1ccccc1.Cn1c(=O)c2[nH]c(Cl)nc2n(C)c1=O`, 0.995; under `C[C@@H]1CC[C@@]23CCC4(C)[C@@](C=CC5[C@@]6(C)CC[C@H](O)C(C)(C)C6CC[C@]54C)(OC2=O)C3[C@H]1C` (stereo partly drawn), 0.954. As for `Cl.N[C@@H](CCC(=O)O)C(=O)O` [L-Glutamic acid hydrochloride], the normalized bacterial growth amounted to 1.19. Under `COc1ccc([C@@H]2CC(=O)c3c(O)cc(OC4O[C@H](CO[C@H]5O[C@@H](C)[C@@H](O)[C@@H](O)[C@H]5O)[C@H](O)[C@H](O)[C@H]4O)cc3O2)cc1O` (stereo partly drawn) stands 1.34. Under `O=C1NCC2(CCN(CCc3ccccc3)CC2)O1` [Fenspiride hydrochloride] stands 0.907. Regarding `Clc1ccc2c(c1)CCc1cccnc1C2=C1CCNCC1`, the normalized bacterial growth was 0.693 and 0.91.
